The supplement of paper PMC3334620
Over roughly 33,000 sequences, “E-score (-0.5 to 0.5)” has its median near -0.015; the highest 2% begin near 0.3. Some of the results follow.

Each sequence was assayed against T1, Abf1 (UniProt P14164) (assay: PBM E-score (8-mer binding enrichment) (E-score (-0.5 to 0.5)); higher = stronger / more preferred TF binding). Conditions: protein concentration: 200 nM; construct: GST-full length.
T1 sequence: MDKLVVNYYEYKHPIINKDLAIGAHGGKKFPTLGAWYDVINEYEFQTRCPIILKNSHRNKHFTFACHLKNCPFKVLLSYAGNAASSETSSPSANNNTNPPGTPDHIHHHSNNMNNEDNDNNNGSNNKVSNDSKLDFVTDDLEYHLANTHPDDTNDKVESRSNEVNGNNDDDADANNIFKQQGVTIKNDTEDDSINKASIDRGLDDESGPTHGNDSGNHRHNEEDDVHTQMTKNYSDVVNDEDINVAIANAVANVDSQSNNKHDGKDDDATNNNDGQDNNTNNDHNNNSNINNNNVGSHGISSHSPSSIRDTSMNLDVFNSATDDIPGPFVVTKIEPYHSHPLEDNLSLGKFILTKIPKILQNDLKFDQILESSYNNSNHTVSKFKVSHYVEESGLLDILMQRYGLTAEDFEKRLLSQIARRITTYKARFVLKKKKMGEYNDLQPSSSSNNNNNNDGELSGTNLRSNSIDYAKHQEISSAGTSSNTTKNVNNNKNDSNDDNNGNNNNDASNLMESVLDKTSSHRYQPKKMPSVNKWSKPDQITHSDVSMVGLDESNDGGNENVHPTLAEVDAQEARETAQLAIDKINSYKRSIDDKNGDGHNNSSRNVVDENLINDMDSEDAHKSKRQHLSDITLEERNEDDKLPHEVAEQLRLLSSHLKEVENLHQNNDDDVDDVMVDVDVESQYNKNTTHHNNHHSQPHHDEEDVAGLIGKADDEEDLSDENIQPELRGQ
Procedure, shortened: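 Each ungapped eight-base word and its reverse complement, pooled, received an E-score from the Universal PBM Analysis Suite. Underlying scans, normalised with masliner, recorded fluorescent anti-GST bound to GST-tagged yeast transcription factors. These were applied at about 100-200 nM to universal all-10-mer Agilent arrays double-stranded by primer extension.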

Row | Sequence | PBM E-score
1 | ATGGGGCA | -0.356
2 | CAACTGAA | -0.133
3 | GGAGATCA | 0.215
4 | ACCCAGGC | -0.0904
5 | CCGCCGAA | -0.0792
6 | CTCGCAAG | 0.0363
7 | AGTATTAA | 0.174
8 | GTGAGTTA | 0.21
9 | AGTGATGA | 0.366
10 | CGCGGGAA | -0.0427
11 | AGGTAGAA | -0.178
12 | AAAAGGGC | -0.116
13 | GCACGGAA | 0.0639
14 | GCGCATCA | 0.0556
15 | CGAGTTGA | 0.00274
16 | AGCTGCTC | -0.148
17 | GGGACTAA | -0.0888
18 | AAAGGTGC | -0.0948
19 | GGTAGGCA | -0.116
20 | CACGCAAA | -0.194
21 | AATTTCCA | 0.0126

Row | Sequence | PBM E-score
22 | CAGCTTAC | 0.0244
23 | AAGTCCAA | -0.0248
24 | ATCGTACC | 0.0609
25 | CGTCGGAC | 0.173
26 | AAGCGACC | 0.0888
27 | TACAGGGA | -0.19
28 | AATGGCAT | 0.139
29 | AATACTGA | -0.153
30 | GGAGGACA | -0.171
31 | ATGCTTCA | 0.0865
32 | GGGGGCTA | -0.389
33 | AGAACTGG | -0.111
34 | AACGACCA | 0.128
35 | GGACCAGA | -0.0791
36 | GAAACAAC | 0.0849
37 | ACTTTCTA | 0.185
38 | CGAGCTGC | -0.131
39 | TAAGACCA | -0.212
40 | ACATACGG | 0.3
41 | CTCCACCA | -0.188
42 | GGTCTAAA | -0.0643

Row | Sequence | PBM E-score
43 | AATTGATC | 0.11
44 | AGTGAGAT | 0.147
45 | AGTCCCCG | -0.265
46 | GCCCACTA | -0.0762
47 | AGCCTATA | 0.0287
48 | CATAAGGG | -0.0557
49 | GAAACACC | 0.0634
50 | CCGCTGGC | -0.16
51 | CGGGTATA | 0.00121
52 | AGAGCACT | 0.0808
53 | AGGGTCGG | -0.132
54 | CGCAAGTC | -0.259
55 | AGTGTATC | -0.0403
56 | CCCTTGCG | -0.24
57 | ATGCGTAA | 0.195
58 | TATACCCA | -0.0552
59 | AAAAGTTC | 0.00896
60 | ATTTTCTA | 0.259
61 | GGTACCAA | -0.0799
62 | AAACTCTG | -0.0777
63 | CGGGCACC | -0.0646

Row | Sequence | PBM E-score
64 | AGAGGCGG | -0.215
65 | ATGACCGA | 0.0406
66 | CTACCCGA | -0.114
67 | CGTACTAG | 0.267
68 | GGACCTTA | -0.131
69 | CCCTAGGC | -0.176
70 | TAGTGAAA | -0.0802
71 | CCCAGCCG | 0.0358
72 | GTACTTTA | 0.0775
73 | CTGCAACC | -0.157
74 | AACTGATA | 0.0891
75 | CATTTGAA | 0.00275
76 | CTCTCCGC | -0.116
77 | CACTGTCC | 0.125
78 | GCCGAGCC | -0.263
79 | ACACTCGA | -0.0221
80 | CGTGCTGC | 0.134
81 | GTTAGTTA | 0.175
82 | AATAGATG | 0.142

Entries 74 to 75 of the list above:
Row | Sequence | PBM E-score
74 | AACTGATA | 0.0891
75 | CATTTGAA | 0.00275
